Structures can show the parent of a compound that is named as a salt. Some well-known active drugs show little effect in this data set, so a weak value is uncertain.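 OVCAR3, described as chemosensitive, is one of three high-grade serous ovarian cancer lines that differ in chemosensitivity. Toxicity was scaled from DMSO vehicle wells to fully lysed wells; scores came from fitted multi-dose response curves, and the authors treated scores above 5 as indicating drug sensitivity.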
How the values were obtained:
Test in all cases: drug sensitivity score (DSS2, cytotoxicity, CellTox Green); higher = more cytotoxic / more sensitive; extreme values may be limits of the assay
Settings in all cases: 72 h; doses 0.5, 1, 5 µM
Kuramochi = test system: Kuramochi
OVCAR4 = test system: OVCAR4
OVCAR3 = test system: OVCAR3

| Compound | drug sensitivity score (Kuramochi) [DSS] | drug sensitivity score (OVCAR4) [DSS] | drug sensitivity score (OVCAR3) [DSS] |
| --- | --- | --- | --- |
| CO[C@H]1C[C@@H]2CC[C@@H](C)[C@@](O)(O2)C(=O)C(=O)N2CCCC[C@H]2C(=O)O[C@H]([C@H](C)C[C@@H]2CC[C@@H](OC(=O)C(C)(CO)CO)[C@H](OC)C2)CC(=O)[C@H](C)/C=C(\C)[C@@H](O)[C@@H](OC)C(=O)[C@H](C)C[C@H](C)/C=C/C=C/C=C/1C [Temsirolimus] | 0 | 0 | 0 |
| COCCCOc1cc(C[C@@H](C[C@H](N)[C@@H](O)C[C@H](C(=O)NCC(C)(C)C(N)=O)C(C)C)C(C)C)ccc1OC [Aliskiren (hemifumarate)] | 0 | 0 | 0.1 |
| COc1cc2c(c(OC)c1OC)-c1ccc(OC)c(=O)cc1[C@@H](NC(C)=O)CC2 [Colchicine] | 2.6 | 0 | 4.9 |
| Cn1cnc2c(F)c(Nc3ccc(Br)cc3Cl)c(C(=O)NOCCO)cc21 [Selumetinib] | 0 | 0 | 1.3 |
| Cc1cc(=O)[nH]c(=S)[nH]1 [Methylthiouracil] | 0 | 0 | 0 |
| N#CC[C@H](C1CCCC1)n1cc(-c2ncnc3[nH]ccc23)cn1 [Ruxolitinib] | 0 | 0 | 0 |
| CC[C@@H]1CN(C(=O)NCC(F)(F)F)C[C@@H]1c1cnc2cnc3[nH]ccc3n12 [Upadacitinib] | 0 | 0 | 0 |
| CN1CCN(C(=O)/C=C/c2ccc([N+](=O)[O-])o2)CC1 | 0 | 0 | 0 |
| Nc1nc2c(ncn2COCCO)c(=O)[nH]1 [Acyclovir] | 0 | 0 | 0 |
| C[Se]CC[C@H](N)C(=O)O [L-SelenoMethionine] | 0 | 0 | 0 |
| O=C(O)c1cccc(-c2noc(-c3ccccc3F)n2)c1 [Ataluren] | 0 | 0 | 0 |
| O=NN(CCCl)C(=O)NC1CCCCC1 [Lomustine] | 0 | 0 | 0 |
| CC[C@H](Nc1ncnc2[nH]cnc12)c1nc2cccc(F)c2c(=O)n1-c1ccccc1 [Idelalisib] | 4 | 1.1 | 5.8 |
| CC(C(=O)O)c1cccc(Oc2ccccc2)c1 (stereo unspecified) [Fenoprofen (Calcium hydrate)] | 0 | 0 | 0 |
| C[C@]12C=CC(=O)N[C@@H]1CC[C@@H]1[C@@H]2CC[C@]2(C)[C@@H](C(=O)Nc3cc(C(F)(F)F)ccc3C(F)(F)F)CC[C@@H]12 [Dutasteride] | 0 | 0 | 0 |
| C[C@@H]1C[C@H]2[C@@H]3CCC4=CC(=O)C=C[C@]4(C)[C@@]3(F)[C@@H](O)C[C@]2(C)[C@@]1(O)C(=O)CO [Dexamethasone] | 0 | 0 | 0 |
| COc1ccc(/C=C/c2nc(NCCCN(C)C)c3ccccc3n2)cc1 | 0 | 0 | 0 |
| COc1cc(C)c(/C=C/C(C)=C/C=C/C(C)=C/C(=O)O)c(C)c1C [Acitretin] | 0 | 0 | 0 |
| COC(=O)/C=C/C(=O)OC [Dimethyl fumarate] | 0.1 | 0 | 0 |
| O=C(/C=C/c1cccc(S(=O)(=O)Nc2ccccc2)c1)NO [Belinostat] | 1.7 | 1.5 | 2.9 |
| COc1ccc(C2=N[C@H](c3ccc(Cl)cc3)[C@H](c3ccc(Cl)cc3)N2C(=O)N2CCNC(=O)C2)c(OC(C)C)c1 [Nutlin-3b] | 0 | 0 | 0 |
| C[N+](C)(C)CCOP(=O)(O)OP(=O)([O-])OC[C@H]1O[C@@H](n2ccc(N)nc2=O)[C@H](O)[C@@H]1O [Citicoline (sodium)] | 0 | 0 | 0 |
| Cc1c(C(=O)Nc2ccc(N3C[C@@H](C)O[C@@H](C)C3)nc2)cccc1-c1ccc(OC(F)(F)F)cc1 [Sonidegib (diphosphate)] | 0 | 0 | 0 |
| CC[C@H](C)C(=O)O[C@H]1C[C@H](O)C=C2C=C[C@H](C)[C@H](CC[C@@H](O)C[C@@H](O)CC(=O)O)[C@H]21 [Pravastatin (sodium)] | 0 | 0 | 0 |

13 neighbouring entries already listed:

| Compound | drug sensitivity score (Kuramochi) [DSS] | drug sensitivity score (OVCAR4) [DSS] | drug sensitivity score (OVCAR3) [DSS] |
| --- | --- | --- | --- |
| O=NN(CCCl)C(=O)NC1CCCCC1 [Lomustine] | 0 | 0 | 0 |
| CC[C@H](Nc1ncnc2[nH]cnc12)c1nc2cccc(F)c2c(=O)n1-c1ccccc1 [Idelalisib] | 4 | 1.1 | 5.8 |
| CC(C(=O)O)c1cccc(Oc2ccccc2)c1 (stereo unspecified) [Fenoprofen (Calcium hydrate)] | 0 | 0 | 0 |
| C[C@]12C=CC(=O)N[C@@H]1CC[C@@H]1[C@@H]2CC[C@]2(C)[C@@H](C(=O)Nc3cc(C(F)(F)F)ccc3C(F)(F)F)CC[C@@H]12 [Dutasteride] | 0 | 0 | 0 |
| C[C@@H]1C[C@H]2[C@@H]3CCC4=CC(=O)C=C[C@]4(C)[C@@]3(F)[C@@H](O)C[C@]2(C)[C@@]1(O)C(=O)CO [Dexamethasone] | 0 | 0 | 0 |
| COc1ccc(/C=C/c2nc(NCCCN(C)C)c3ccccc3n2)cc1 | 0 | 0 | 0 |
| COc1cc(C)c(/C=C/C(C)=C/C=C/C(C)=C/C(=O)O)c(C)c1C [Acitretin] | 0 | 0 | 0 |
| COC(=O)/C=C/C(=O)OC [Dimethyl fumarate] | 0.1 | 0 | 0 |
| O=C(/C=C/c1cccc(S(=O)(=O)Nc2ccccc2)c1)NO [Belinostat] | 1.7 | 1.5 | 2.9 |
| COc1ccc(C2=N[C@H](c3ccc(Cl)cc3)[C@H](c3ccc(Cl)cc3)N2C(=O)N2CCNC(=O)C2)c(OC(C)C)c1 [Nutlin-3b] | 0 | 0 | 0 |
| C[N+](C)(C)CCOP(=O)(O)OP(=O)([O-])OC[C@H]1O[C@@H](n2ccc(N)nc2=O)[C@H](O)[C@@H]1O [Citicoline (sodium)] | 0 | 0 | 0 |
| Cc1c(C(=O)Nc2ccc(N3C[C@@H](C)O[C@@H](C)C3)nc2)cccc1-c1ccc(OC(F)(F)F)cc1 [Sonidegib (diphosphate)] | 0 | 0 | 0 |
| CC[C@H](C)C(=O)O[C@H]1C[C@H](O)C=C2C=C[C@H](C)[C@H](CC[C@@H](O)C[C@@H](O)CC(=O)O)[C@H]21 [Pravastatin (sodium)] | 0 | 0 | 0 |

(cont.)

| Compound | drug sensitivity score (Kuramochi) [DSS] | drug sensitivity score (OVCAR4) [DSS] | drug sensitivity score (OVCAR3) [DSS] |
| --- | --- | --- | --- |
| O=C([O-])CN(CCN(CC(=O)[O-])CC(=O)O)CC(=O)[O-].[Na+].[Na+].[Na+] [Ethylenediaminetetraacetic acid (trisodium salt)] | 0 | 0 | 0 |
| CNCCCC12CCC(c3ccccc31)c1ccccc12 [Maprotiline (hydrochloride)] | 0 | 0 | 0 |
| CC(=O)c1c(C)c2cnc(Nc3ccc(N4CCNCC4)cn3)nc2n(C2CCCC2)c1=O [Palbociclib (isethionate)] | 0 | 0 | 0 |
| CC(C)C(C(=O)O)N1C(=O)C(=Cc2ccc(Br)cc2)SC1=S (stereo unspecified) [BH3I-1] | 0 | 0 | 0 |
| O=C(c1ccc(F)c(F)c1Nc1ccc(I)cc1F)N1CC(O)([C@@H]2CCCCN2)C1 [Cobimetinib] | 0 | 0 | 0 |
| O=C1O[C@H]([C@@H](O)CO)C(O)=C1O [L-Ascorbic acid] | 0 | 0 | 0 |
| CC(C)C(=O)Nc1ccc([N+](=O)[O-])c(C(F)(F)F)c1 [Flutamide] | 0 | 0 | 0 |
| C/C=C(\C)C(=O)O[C@H]1[C@H](OC(C)=O)[C@]2(CO)[C@H](O)C[C@]3(C)C(=CC[C@@H]4[C@@]5(C)CC[C@H](O[C@@H]6O[C@H](C(=O)O)[C@@H](O[C@H]7O[C@@H](CO)[C@H](O)[C@@H](O)[C@@H]7O)[C@H](O)[C@H]6O[C@@H]6OC(CO)[C@@H](O)[C@H](O)[C@H]6O)[C@](C)(CO)[C@@H]5CC[C@]43C)[C@@H]2CC1(C)C (stereo partly specified) [Escin] | 0.1 | 0 | 0.9 |
| CCOC(=O)[C@H](CCc1ccccc1)N[C@@H](C)C(=O)N1Cc2cc(OC)c(OC)cc2C[C@H]1C(=O)O [Moexipril (hydrochloride)] | 0 | 0 | 0 |
| N#Cc1c2ccc(N)cc2nc2cc(N)ccc12 [CTX1] | 0 | 0 | 0 |
| CN(C)CCCCC(=O)Nc1ccc(NC(=S)NC(=O)c2ccc(C(C)(C)C)cc2)cc1 [Tenovin-6] | 0 | 0 | 0 |
| COc1ncc(-c2nc3c(n2C(C)C)[C@H](c2ccc(Cl)cc2)N(c2cc(Cl)cn(C)c2=O)C3=O)c(OC)n1 [Siremadlin] | 0 | 0 | 0 |
| CN(CCOc1ccc(CC2SC(=O)NC2=O)cc1)c1ccccn1 (stereo unspecified) [Rosiglitazone] | 0 | 0 | 0 |
| Cc1ccc2c(c1)c1c(n2CCc2ccc(C)nc2)CCN(C)C1 [Latrepirdine (dihydrochloride)] | 4.1 | 2.4 | 2.4 |
| CC(=O)Nc1cccc(-n2c(=O)n(C3CC3)c(=O)c3c(Nc4ccc(I)cc4F)n(C)c(=O)c(C)c32)c1 [Trametinib] | 0 | 0 | 0 |
| COc1cccc2c1C(=O)c1c(O)c3c(c(O)c1C2=O)C[C@@](O)(C(C)=O)C[C@@H]3O[C@H]1C[C@H](N)[C@H](O)[C@H](C)O1 [Daunorubicin (hydrochloride)] | 0 | 0 | 0 |
| C=CCc1ccc(O)c(OC)c1 [Eugenol] | 0 | 0 | 0 |
| CC(C)(C#N)c1cc(Cn2cncn2)cc(C(C)(C)C#N)c1 [Anastrozole] | 0 | 0 | 0 |
| Cc1ccc(=O)n(-c2ccccc2)c1 [Pirfenidone] | 0 | 0 | 0 |
| NCCS(=O)(=O)O [Taurine] | 0 | 2.4 | 0.7 |
| O=C(Nc1cnn2ccc(N3CCC[C@@H]3c3cc(F)ccc3F)nc12)N1CC[C@H](O)C1 [Larotrectinib sulfate] | 0 | 0 | 0 |
| Nc1nc(F)nc2c1ncn2[C@@H]1O[C@H](COP(=O)(O)O)[C@@H](O)[C@@H]1O [Fludarabine (phosphate)] | 0 | 0 | 0 |
| CCCCN(CCCC)CC(O)c1cc(Cl)cc2c1-c1ccc(Cl)cc1/C2=C/c1ccc(Cl)cc1 (stereo unspecified) [Lumefantrine] | 0 | 0 | 0 |
